Article PMC11196215

Experiments:
Assay in all cases: co-IP; PDK2 co-immunoprecipitated with HA-tagged FOXK2 deletion constructs; cell lysate in IP buffer; protein A/G beads with antibody; overnight at 4 °C; western blotting; cell line not stated
[1] = target: T1, FOXK2-Δ(129-171)-HA (human) (UniProt Q01167)
T1 sequence: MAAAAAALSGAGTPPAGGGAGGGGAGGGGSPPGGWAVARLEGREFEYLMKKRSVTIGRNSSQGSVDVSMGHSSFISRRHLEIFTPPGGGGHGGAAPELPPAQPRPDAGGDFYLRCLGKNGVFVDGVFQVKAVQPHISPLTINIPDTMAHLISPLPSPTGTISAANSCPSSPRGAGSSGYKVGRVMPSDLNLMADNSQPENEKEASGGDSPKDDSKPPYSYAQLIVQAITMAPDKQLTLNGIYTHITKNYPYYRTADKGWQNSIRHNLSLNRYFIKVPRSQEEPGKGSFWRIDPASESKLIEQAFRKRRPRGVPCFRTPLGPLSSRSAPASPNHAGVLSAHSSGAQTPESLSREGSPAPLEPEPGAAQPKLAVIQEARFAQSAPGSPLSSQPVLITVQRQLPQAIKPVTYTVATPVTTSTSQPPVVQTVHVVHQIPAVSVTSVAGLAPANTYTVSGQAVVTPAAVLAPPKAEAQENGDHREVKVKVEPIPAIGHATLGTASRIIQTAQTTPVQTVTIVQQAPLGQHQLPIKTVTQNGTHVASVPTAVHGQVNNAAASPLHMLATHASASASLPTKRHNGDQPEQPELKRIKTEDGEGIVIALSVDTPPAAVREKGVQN

[2] = target: T2, FOXK2-Δ(300-371)-HA (human) (UniProt Q01167)
T2 sequence: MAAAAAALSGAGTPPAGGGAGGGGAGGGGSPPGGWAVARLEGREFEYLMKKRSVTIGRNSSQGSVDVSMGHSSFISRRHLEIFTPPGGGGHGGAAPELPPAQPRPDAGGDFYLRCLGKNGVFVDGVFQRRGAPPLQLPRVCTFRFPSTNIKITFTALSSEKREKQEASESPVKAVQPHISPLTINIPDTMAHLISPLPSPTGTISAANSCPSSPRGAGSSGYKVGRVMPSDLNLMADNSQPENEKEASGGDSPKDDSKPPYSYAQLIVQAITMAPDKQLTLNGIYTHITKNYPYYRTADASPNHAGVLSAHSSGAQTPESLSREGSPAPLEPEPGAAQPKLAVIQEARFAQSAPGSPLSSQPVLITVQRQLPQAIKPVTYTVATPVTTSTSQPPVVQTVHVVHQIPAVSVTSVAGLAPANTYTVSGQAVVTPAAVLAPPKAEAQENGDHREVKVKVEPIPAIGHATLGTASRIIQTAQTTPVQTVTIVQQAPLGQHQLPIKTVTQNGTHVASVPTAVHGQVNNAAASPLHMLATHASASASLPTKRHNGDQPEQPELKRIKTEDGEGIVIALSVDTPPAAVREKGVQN

[3] = target: T3, FOXK2-Δ(54-128)-HA (human) (UniProt Q01167)
T3 sequence: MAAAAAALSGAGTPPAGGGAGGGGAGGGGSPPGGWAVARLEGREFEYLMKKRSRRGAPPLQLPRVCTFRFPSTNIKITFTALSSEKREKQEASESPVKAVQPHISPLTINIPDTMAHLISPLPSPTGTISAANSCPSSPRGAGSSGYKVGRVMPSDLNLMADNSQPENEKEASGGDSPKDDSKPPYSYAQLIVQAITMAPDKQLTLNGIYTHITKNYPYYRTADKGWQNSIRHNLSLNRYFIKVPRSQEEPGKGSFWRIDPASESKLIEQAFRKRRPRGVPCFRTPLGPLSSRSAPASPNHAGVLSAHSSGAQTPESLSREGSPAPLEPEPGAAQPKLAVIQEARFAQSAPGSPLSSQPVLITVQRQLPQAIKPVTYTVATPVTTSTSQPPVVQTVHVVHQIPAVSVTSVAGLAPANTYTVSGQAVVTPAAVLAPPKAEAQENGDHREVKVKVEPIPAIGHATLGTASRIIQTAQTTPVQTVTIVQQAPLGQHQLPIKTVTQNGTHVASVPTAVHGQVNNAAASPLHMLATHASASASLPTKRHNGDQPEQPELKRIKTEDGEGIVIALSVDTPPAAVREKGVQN

PDK2-Flag (human) (enzyme)
binding [1]: binds
binding [2]: binds
binding [3]: no binding

Results are given in words; binding and its absence hold for the method and conditions named. In cells and extracts the contact can be indirect. For part of these data: Binding can be weak; no strength is given. Tags and fused reporters may be left off the sequences shown.
